{
  "sequences": {"note": "Protein sequences, listed by entry. Tags and fused reporters are not part of them. Lines headed by an entry give the natural chain unless they say otherwise; changes in a name come on top.", "UniProt P80370": "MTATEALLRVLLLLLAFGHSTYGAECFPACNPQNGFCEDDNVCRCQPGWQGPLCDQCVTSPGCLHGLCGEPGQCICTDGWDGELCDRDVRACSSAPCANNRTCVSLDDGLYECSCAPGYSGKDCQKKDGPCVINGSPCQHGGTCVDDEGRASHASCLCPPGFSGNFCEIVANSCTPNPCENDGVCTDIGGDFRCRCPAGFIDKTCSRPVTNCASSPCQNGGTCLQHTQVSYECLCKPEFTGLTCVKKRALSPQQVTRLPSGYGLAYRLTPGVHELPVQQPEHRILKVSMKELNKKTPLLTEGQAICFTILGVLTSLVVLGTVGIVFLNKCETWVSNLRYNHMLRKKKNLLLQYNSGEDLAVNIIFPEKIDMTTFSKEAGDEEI", "UniProt Q9NVP1": "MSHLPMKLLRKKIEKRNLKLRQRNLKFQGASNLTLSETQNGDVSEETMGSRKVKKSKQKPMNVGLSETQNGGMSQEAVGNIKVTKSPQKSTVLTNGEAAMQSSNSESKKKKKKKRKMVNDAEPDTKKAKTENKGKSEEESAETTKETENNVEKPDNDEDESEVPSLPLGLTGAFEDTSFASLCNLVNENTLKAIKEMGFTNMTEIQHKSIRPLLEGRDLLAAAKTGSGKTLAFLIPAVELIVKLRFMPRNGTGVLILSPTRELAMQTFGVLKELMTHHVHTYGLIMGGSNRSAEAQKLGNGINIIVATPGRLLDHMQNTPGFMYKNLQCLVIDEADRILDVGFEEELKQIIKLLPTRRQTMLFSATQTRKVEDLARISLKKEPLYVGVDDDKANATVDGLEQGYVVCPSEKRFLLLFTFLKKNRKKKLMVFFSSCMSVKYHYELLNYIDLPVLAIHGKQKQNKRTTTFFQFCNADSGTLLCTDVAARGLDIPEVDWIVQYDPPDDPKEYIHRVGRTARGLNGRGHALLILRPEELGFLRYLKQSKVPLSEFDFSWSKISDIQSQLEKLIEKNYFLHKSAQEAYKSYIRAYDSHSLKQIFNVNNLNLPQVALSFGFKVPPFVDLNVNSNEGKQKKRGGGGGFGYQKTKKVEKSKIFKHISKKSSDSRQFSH", "UniProt Q8TF46, whole entry, looked up": "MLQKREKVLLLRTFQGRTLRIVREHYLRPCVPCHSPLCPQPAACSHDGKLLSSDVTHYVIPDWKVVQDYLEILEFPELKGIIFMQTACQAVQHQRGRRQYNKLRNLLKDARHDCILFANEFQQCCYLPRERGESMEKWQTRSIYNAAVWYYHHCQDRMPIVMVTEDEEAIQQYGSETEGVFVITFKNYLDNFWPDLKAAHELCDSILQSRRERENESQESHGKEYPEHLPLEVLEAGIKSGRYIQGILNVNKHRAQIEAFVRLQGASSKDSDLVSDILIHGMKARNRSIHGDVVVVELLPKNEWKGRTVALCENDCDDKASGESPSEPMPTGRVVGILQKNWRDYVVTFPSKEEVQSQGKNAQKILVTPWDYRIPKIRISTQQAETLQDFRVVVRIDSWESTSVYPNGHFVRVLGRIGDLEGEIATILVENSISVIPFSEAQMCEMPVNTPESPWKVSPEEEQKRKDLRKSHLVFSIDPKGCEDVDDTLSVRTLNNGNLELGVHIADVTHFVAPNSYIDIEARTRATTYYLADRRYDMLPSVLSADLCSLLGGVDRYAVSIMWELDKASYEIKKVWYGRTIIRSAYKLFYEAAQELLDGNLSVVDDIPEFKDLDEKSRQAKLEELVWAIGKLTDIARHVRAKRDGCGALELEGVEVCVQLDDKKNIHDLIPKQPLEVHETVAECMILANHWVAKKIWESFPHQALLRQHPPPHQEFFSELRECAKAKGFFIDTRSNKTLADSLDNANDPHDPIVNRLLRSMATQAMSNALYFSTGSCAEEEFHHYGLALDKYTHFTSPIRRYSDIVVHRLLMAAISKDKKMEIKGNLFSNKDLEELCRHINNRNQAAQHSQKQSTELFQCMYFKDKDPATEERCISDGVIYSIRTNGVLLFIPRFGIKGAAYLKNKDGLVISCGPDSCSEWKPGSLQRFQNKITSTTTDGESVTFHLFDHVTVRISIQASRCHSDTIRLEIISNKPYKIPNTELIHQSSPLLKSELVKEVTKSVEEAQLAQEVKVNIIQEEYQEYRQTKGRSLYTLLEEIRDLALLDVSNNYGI", "UniProt Q9UGM3": "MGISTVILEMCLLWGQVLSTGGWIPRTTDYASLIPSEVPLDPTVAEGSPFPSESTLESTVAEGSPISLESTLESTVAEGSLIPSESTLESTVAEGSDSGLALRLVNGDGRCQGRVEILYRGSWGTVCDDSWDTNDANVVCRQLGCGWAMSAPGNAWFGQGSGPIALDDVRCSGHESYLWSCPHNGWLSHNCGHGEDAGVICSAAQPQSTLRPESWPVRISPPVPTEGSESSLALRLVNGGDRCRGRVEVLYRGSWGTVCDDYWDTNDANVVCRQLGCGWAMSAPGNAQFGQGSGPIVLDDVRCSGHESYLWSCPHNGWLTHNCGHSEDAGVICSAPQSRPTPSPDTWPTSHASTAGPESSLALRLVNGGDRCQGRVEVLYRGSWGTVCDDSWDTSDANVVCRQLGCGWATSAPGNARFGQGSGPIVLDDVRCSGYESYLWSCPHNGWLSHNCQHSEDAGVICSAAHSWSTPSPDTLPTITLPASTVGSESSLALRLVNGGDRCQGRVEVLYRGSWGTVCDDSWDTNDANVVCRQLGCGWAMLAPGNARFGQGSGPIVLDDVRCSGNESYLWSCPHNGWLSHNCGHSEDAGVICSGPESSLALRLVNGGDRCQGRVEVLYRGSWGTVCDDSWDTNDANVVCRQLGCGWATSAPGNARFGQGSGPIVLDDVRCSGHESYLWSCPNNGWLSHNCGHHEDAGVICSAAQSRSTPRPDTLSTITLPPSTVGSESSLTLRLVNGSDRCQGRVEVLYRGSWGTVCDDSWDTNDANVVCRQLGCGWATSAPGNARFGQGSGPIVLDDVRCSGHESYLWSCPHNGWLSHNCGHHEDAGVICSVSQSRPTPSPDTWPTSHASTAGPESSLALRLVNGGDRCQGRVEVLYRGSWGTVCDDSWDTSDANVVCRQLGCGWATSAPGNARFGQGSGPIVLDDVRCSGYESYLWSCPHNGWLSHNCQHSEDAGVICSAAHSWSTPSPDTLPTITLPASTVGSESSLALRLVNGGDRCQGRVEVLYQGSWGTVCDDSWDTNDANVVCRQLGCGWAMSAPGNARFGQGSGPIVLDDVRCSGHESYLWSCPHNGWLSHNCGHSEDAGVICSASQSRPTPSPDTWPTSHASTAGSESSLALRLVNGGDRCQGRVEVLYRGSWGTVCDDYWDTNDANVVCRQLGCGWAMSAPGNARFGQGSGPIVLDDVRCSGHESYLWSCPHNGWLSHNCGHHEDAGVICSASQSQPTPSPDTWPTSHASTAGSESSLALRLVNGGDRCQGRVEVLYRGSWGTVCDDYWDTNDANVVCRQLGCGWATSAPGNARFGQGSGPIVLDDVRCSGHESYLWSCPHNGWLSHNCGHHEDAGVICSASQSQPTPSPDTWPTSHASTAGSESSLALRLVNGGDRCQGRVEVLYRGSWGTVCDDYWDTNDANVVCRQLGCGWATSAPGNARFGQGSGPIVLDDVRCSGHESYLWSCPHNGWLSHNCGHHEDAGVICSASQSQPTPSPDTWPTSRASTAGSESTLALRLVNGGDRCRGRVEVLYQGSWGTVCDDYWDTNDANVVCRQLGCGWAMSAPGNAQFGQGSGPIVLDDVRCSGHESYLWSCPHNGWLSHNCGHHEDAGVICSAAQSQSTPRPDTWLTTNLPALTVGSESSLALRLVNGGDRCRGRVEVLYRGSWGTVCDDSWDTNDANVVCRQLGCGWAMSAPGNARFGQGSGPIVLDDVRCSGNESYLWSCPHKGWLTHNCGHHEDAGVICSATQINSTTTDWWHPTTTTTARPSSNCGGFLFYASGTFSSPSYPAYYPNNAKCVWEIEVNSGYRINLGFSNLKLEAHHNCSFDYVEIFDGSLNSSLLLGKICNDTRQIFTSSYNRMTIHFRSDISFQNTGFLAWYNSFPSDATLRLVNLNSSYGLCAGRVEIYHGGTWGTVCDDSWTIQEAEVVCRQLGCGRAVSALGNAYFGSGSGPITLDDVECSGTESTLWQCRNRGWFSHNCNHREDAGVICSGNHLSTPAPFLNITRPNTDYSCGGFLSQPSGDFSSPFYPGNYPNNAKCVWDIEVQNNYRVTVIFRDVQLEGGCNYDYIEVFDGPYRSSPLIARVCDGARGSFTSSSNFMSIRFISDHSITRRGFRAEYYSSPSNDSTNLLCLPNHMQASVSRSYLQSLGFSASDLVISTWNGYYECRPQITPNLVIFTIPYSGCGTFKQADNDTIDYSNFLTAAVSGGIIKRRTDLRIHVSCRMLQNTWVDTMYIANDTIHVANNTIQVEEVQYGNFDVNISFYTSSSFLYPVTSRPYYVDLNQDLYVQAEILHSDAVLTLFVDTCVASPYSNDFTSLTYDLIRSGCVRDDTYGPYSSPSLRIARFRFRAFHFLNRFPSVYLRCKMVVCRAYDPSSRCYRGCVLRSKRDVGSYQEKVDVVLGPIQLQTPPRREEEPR", "UniProt Q9UJV9": "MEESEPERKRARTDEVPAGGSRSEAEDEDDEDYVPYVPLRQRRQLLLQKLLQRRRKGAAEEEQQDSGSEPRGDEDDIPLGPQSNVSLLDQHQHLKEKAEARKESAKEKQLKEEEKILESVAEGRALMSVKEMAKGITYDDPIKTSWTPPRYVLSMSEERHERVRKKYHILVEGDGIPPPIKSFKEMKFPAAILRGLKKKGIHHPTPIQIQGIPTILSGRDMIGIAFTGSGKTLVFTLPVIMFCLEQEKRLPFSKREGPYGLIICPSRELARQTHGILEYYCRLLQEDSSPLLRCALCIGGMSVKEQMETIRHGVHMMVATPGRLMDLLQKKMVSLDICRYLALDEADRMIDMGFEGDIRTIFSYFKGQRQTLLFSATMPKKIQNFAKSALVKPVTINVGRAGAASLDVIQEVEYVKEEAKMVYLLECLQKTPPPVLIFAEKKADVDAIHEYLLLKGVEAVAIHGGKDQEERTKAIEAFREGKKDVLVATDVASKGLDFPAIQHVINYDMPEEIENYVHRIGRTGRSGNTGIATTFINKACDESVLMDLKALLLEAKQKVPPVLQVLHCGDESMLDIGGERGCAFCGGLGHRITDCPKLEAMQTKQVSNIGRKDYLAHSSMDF", "UniProt Q9Y222": "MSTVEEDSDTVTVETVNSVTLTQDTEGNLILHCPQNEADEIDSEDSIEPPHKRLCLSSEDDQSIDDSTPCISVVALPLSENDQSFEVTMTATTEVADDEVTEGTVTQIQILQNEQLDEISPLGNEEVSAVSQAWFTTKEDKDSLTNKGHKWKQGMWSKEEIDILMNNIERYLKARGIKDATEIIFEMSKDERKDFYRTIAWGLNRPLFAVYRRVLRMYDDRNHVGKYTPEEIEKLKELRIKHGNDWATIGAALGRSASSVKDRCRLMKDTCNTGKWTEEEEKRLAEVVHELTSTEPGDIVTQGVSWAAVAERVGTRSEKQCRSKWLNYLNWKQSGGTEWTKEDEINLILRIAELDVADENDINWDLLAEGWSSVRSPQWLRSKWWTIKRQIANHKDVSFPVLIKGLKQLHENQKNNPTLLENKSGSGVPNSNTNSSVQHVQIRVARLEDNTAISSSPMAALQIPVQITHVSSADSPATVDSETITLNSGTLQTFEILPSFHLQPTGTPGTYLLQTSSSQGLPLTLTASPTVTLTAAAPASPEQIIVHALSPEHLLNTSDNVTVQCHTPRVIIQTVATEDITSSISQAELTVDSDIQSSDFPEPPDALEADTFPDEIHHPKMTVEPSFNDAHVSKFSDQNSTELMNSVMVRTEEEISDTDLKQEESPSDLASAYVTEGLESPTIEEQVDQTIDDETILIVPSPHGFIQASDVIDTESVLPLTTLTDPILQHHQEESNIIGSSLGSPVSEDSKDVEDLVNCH", "UniProt O95057": "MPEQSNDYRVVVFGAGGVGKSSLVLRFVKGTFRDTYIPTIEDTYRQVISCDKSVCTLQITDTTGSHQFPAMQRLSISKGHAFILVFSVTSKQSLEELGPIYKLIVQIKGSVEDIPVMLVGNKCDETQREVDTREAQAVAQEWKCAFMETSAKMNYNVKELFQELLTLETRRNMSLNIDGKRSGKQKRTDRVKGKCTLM", "UniProt Q6ICB0": "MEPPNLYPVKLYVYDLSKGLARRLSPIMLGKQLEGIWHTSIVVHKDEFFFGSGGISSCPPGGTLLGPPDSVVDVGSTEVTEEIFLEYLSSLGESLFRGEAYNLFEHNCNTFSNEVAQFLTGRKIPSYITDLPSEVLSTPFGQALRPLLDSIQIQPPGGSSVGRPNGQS", "UniProt O15121": "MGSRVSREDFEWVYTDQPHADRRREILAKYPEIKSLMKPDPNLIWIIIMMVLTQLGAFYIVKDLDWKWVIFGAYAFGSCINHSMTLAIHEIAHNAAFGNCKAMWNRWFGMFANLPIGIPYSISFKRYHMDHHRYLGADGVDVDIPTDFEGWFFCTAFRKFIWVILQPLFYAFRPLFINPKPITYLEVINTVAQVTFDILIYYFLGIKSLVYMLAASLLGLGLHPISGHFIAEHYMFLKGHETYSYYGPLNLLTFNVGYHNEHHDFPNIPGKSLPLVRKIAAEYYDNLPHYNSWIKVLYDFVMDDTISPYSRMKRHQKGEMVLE"},
  "source": "the supplement of paper PMC10849652",
  "note": "Some of the results follow.",
  "data": [
    {"compound": "CC(C)N(C[C@H]1O[C@@H](n2cnc3c(N)ncnc32)[C@H](O)[C@@H]1O)[C@H]1C[C@@H](CCc2nc3cc(C(C)(C)C)ccc3[nH]2)C1 [pinometostat]", "experiment": "log2 fold change, soluble protein after heating vs DMSO (PISA); higher = thermal stabilisation; K562 cells, 10 uM, 30 min; active = over 0.2 and 3.5 SD of the protein, either way, in both replicates (recomputed)", "summary_of_the_method": "(§1)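 Values are thermal stability changes relative to control samples and are taken from duplicates. They are stated as log2 fold changes. Before quantification by TMTpro 16plex LC-MS/MS with equalised channel sums, K562 cells at 2×10^6 cells/mL were treated with 10 μM compound for 30 min, heated in aliquots for 3 min across 48°C-58°C, pooled, extracted in PBS with 0.5% NP-40 at 4°C, and centrifuged at 21,000xg for 90 min to give the soluble supernatant.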", "values": [
      {"target": "DDR1 isoform 5 (UniProt Q08345)", "log2 fold change": "inactive: -0.063"},
      {"target": "DLK1 (UniProt P80370)", "log2 fold change": "inactive: 0.099"},
      {"target": "DEPDC5 (UniProt O75140)", "log2 fold change": "inactive: -0.116"},
      {"target": "DIDO1 (UniProt Q9BTC0)", "log2 fold change": "inactive: 0.124"},
      {"target": "DHX34 (UniProt Q14147)", "log2 fold change": "inactive: 0.037"},
      {"target": "DDX24 (UniProt Q9GZR7)", "log2 fold change": "inactive: 0.229"},
      {"target": "DDX18 (UniProt Q9NVP1)", "log2 fold change": "inactive: 0.095"},
      {"target": "DLC1 (UniProt Q96QB1)", "log2 fold change": "inactive: 0.015"},
      {"target": "DEF6 (UniProt Q9H4E7)", "log2 fold change": "inactive: -0.102"},
      {"target": "DDX27 (UniProt Q96GQ7)", "log2 fold change": "inactive: 0.311"},
      {"target": "DIS3L (UniProt Q8TF46)", "log2 fold change": "inactive: -0.096"},
      {"target": "DET1 isoform 2 (UniProt Q7L5Y6)", "log2 fold change": "inactive: 0.067"},
      {"target": "DHRS13 (UniProt Q6UX07)", "log2 fold change": "inactive: 0.224"}
    ]},
    {"compound": "CC1=C(C(CC(=O)N1)C2=CC=C(C=C2)C(F)(F)F)C(=O)NC3=C(C=C4C(=C3)C=NN4)F", "experiment": "log2 fold change, soluble protein after heating vs DMSO (PISA); higher = thermal stabilisation; K562 cells, 10 uM, 30 min; active = over 0.2 and 3.5 SD of the protein, either way, in both replicates (recomputed)", "summary_of_the_method": "as §1", "values": [
      {"target": "DMBT1 isoform 6 (UniProt Q9UGM3)", "log2 fold change": "inactive: -0.534"},
      {"target": "DDX41 (UniProt Q9UJV9)", "log2 fold change": "inactive: 0.039"},
      {"target": "DECR1 (UniProt E5RJD2)", "log2 fold change": "inactive: -0.056"},
      {"target": "DDAH1 (UniProt O94760)", "log2 fold change": "inactive: -0.019"},
      {"target": "DDB2 (UniProt Q92466)", "log2 fold change": "inactive: 0.068"},
      {"target": "DMKN (UniProt Q6E0U4)", "log2 fold change": "inactive: -0.226"},
      {"target": "DICER1 (UniProt Q9UPY3)", "log2 fold change": "inactive: -0.036"},
      {"target": "DHX35 (UniProt Q9H5Z1)", "log2 fold change": "inactive: 0.174"},
      {"target": "DLC1 (UniProt Q96QB1)", "log2 fold change": "inactive: -0.05"},
      {"target": "DIS3L (UniProt Q8TF46)", "log2 fold change": "inactive: 0.061"}
    ]},
    {"compound": "CC1=C(C2=C(C=C1)C(=O)C3=CC=CC=C3N2CCCN)C", "experiment": "log2 fold change, soluble protein after heating vs DMSO (PISA); higher = thermal stabilisation; K562 cells, 10 uM, 30 min; active = over 0.2 and 3.5 SD of the protein, either way, in both replicates (recomputed)", "summary_of_the_method": "as §1", "values": [
      {"target": "DDX41 (UniProt Q9UJV9)", "log2 fold change": "inactive: -0.051"},
      {"target": "DIDO1 (UniProt Q9BTC0)", "log2 fold change": "inactive: -0.091"},
      {"target": "DMTF1 (UniProt Q9Y222)", "log2 fold change": "inactive: -0.154"},
      {"target": "DHX34 (UniProt Q14147)", "log2 fold change": "inactive: 0.256"},
      {"target": "DENND10 (UniProt Q8TCE6)", "log2 fold change": "inactive: -0.185"},
      {"target": "DDAH1 (UniProt O94760)", "log2 fold change": "inactive: 0.096"},
      {"target": "DHX32 (UniProt Q7L7V1)", "log2 fold change": "inactive: 0.222"},
      {"target": "DDB2 (UniProt Q92466)", "log2 fold change": "inactive: 0.112"},
      {"target": "DMKN (UniProt Q6E0U4)", "log2 fold change": "inactive: 1.29"},
      {"target": "DDX24 (UniProt Q9GZR7)", "log2 fold change": "inactive: -0.39"},
      {"target": "DDX18 (UniProt Q9NVP1)", "log2 fold change": "inactive: -0.242"},
      {"target": "DICER1 (UniProt Q9UPY3)", "log2 fold change": "inactive: 0.07"},
      {"target": "DIRAS1 (UniProt O95057)", "log2 fold change": "inactive: -0.039"},
      {"target": "DESI1 (UniProt Q6ICB0)", "log2 fold change": "inactive: 0.052"},
      {"target": "DEF6 (UniProt Q9H4E7)", "log2 fold change": "inactive: 0.172"},
      {"target": "DDX27 (UniProt Q96GQ7)", "log2 fold change": "inactive: -0.351"},
      {"target": "DEGS1 (UniProt O15121)", "log2 fold change": "inactive: 0.197"},
      {"target": "DDX55 (UniProt Q8NHQ9)", "log2 fold change": "inactive: 0.019"},
      {"target": "DIS3L (UniProt Q8TF46)", "log2 fold change": "inactive: -0.025"},
      {"target": "DHRS13 (UniProt Q6UX07)", "log2 fold change": "inactive: -0.085"},
      {"target": "DMXL2 isoform 3 (UniProt Q8TDJ6)", "log2 fold change": "inactive: 0.047"}
    ]}
  ]
}
